# Measured values as given in PubChem BioAssay (NCATS).
# The shares of active, inactive and inconclusive entries below differ from those in the screen. Calls come from the whole dose curve; as a rule, active = well fitted curve in either direction with a large enough effect; inconclusive = small, poorly fitted or top-dose-only effect; inactive = flat fitted curve, though single readings scatter. Potencies beside an inconclusive call are fits to weak or partial responses and may not hold up.
# Target: Lysosomal alpha-glucosidase (Homo sapiens) (UniProt P10253)
# Assay: Confirmation of Inhibitors and Activators of Purified Human alpha-Glucosidase (AID 2115)
# Procedure, shortened: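 Fluorogenic 4-MU-substrate hydrolysis (400 uM substrate, 4 nM human enzyme) over 20 min at room temperature, pH 5.0 citrate buffer plus 0.005% Tween-20; NaOH/glycine stop, then ex 365/em 440 nm read. Titration up to 77 uM; Hill-equation AC50, normalized to no-enzyme and full-activity controls.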
smiles,measurement,value
O=C1Cc2cc(S(=O)(=O)N3CCN(c4ccc(Cl)cc4)CC3)ccc2N1,Potency,"inconclusive: 94.3 µM [inhibitor, partial curve]"
